# The list shows a part of the results.
# Assays:
# Assay in all cases: glycan array binding signal (z-score within array); higher = stronger binding
# Conditions in all cases: glycan notation: IUPAC condensed, linker removed
# Fuc(a1-2)Gal = target: Fuc(a1-2)Gal
# Summary of the method: (§1)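 Negative Z-scores can be read as non-binding. The Z-score is calculated within each array and then averaged across arrays of one protein sequence at different concentrations or buffers and across linkers. Arrays, 3228 in all, were curated from the Consortium for Functional Glycomics database and kept only where the protein sequence was available.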
# Fuc(a1-2)Gal(b1-3)GalNAc = target: Fuc(a1-2)Gal(b1-3)GalNAc
# Summary of the method: as §1
# [1] = target: Fuc(a1-2)Gal(b1-3)GalNAc(a1-3)[Fuc(a1-2)]Gal(b1-4)Glc
# Summary of the method: as §1
# [2] = target: Fuc(a1-2)Gal(b1-3)GalNAc(a1-3)[Fuc(a1-2)]Gal(b1-4)GlcNAc
# Summary of the method: as §1
# [3] = target: Fuc(a1-2)Gal(b1-3)GalNAc(b1-3)Gal
# Summary of the method: as §1
# [4] = target: Fuc(a1-2)Gal(b1-3)GalNAc(b1-3)Gal(a1-4)Gal(b1-4)Glc
# Summary of the method: as §1
# [5] = target: Fuc(a1-2)Gal(b1-3)GalNAc(b1-4)[Neu5Ac(a2-3)]Gal(b1-4)Glc
# Summary of the method: as §1
# Fuc(a1-2)Gal(b1-3)GlcNAc = target: Fuc(a1-2)Gal(b1-3)GlcNAc
# Summary of the method: as §1
# [6] = target: Fuc(a1-2)Gal(b1-3)GlcNAc(b1-2)Man(a1-3)[Fuc(a1-2)Gal(b1-3)GlcNAc(b1-2)Man(a1-6)]Man(b1-4)GlcNAc(b1-4)GlcNAc
# Summary of the method: as §1
# [7] = target: Fuc(a1-2)Gal(b1-3)GlcNAc(b1-2)Man(a1-3)[Fuc(a1-2)Gal(b1-3)GlcNAc(b1-2)Man(a1-6)]Man(b1-4)GlcNAc(b1-4)[Fuc(a1-6)]GlcNAc
# Summary of the method: as §1
# [8] = target: Fuc(a1-2)Gal(b1-3)GlcNAc(b1-3)Gal(b1-4)Glc
# Summary of the method: as §1
# [9] = target: Fuc(a1-2)Gal(b1-3)GlcNAc(b1-3)GalNAc
# Summary of the method: as §1
# [10] = target: Fuc(a1-2)Gal(b1-3)GlcNAc(b1-3)[Fuc(a1-2)Gal(b1-3)GlcNAc(b1-6)]GalNAc
# Summary of the method: as §1
# [11] = target: Fuc(a1-2)Gal(b1-3)GlcNAc(b1-3)[Gal(b1-4)GlcNAc(b1-6)]Gal(b1-4)Glc
# Summary of the method: as §1
# [12] = target: Fuc(a1-2)Gal(b1-3)GlcNAc(b1-3)[Neu5Ac(a2-6)Gal(b1-4)GlcNAc(b1-6)]Gal(b1-4)Glc
# Summary of the method: as §1
# [13] = target: Fuc(a1-2)Gal(b1-3)GlcNAc6S
# Summary of the method: as §1
# [14] = target: Fuc(a1-2)Gal(b1-3)[Fuc(a1-4)]GlcNAc
# Summary of the method: as §1
# [15] = target: Fuc(a1-2)Gal(b1-3)[Fuc(a1-4)]GlcNAc(b1-2)Man(a1-3)[Fuc(a1-2)Gal(b1-3)[Fuc(a1-4)]GlcNAc(b1-2)Man(a1-3)]Man(b1-4)GlcNAc(b1-4)GlcNAc
# Summary of the method: as §1
# [16] = target: Fuc(a1-2)Gal(b1-3)[Fuc(a1-4)]GlcNAc(b1-2)Man(a1-3)[Fuc(a1-2)Gal(b1-3)[Fuc(a1-4)]GlcNAc(b1-2)Man(a1-6)]Man(b1-4)GlcNAc(b1-4)[Fuc(a1-6)]GlcNAc(b1-4)[Fuc(a1-6)]GlcNAc
# Summary of the method: as §1
# [17] = target: Fuc(a1-2)Gal(b1-3)[Fuc(a1-4)]GlcNAc(b1-3)[Fuc(a1-3)[Gal(b1-4)]GlcNAc(b1-6)]Gal(b1-4)Glc
# Summary of the method: as §1
# [18] = target: Fuc(a1-2)Gal(b1-3)[Fuc(a1-4)]GlcNAc(b1-3)[Gal(b1-4)GlcNAc(b1-6)]Gal(b1-4)Glc
# Summary of the method: as §1
# [19] = target: Fuc(a1-2)Gal(b1-4)Fuc(a1-3)]GlcNAc(b1-2)Man(a1-3)[Fuc(a1-2)Gal(b1-4)[Fuc(a1-3)]GlcNAc(b1-2)Man(a1-6)]Man(b1-4)GlcNAc(b1-4)GlcNAc
# Summary of the method: as §1
# Fuc(a1-2)Gal(b1-4)Glc = target: Fuc(a1-2)Gal(b1-4)Glc
# Summary of the method: as §1
# Fuc(a1-2)Gal(b1-4)Glc6S = target: Fuc(a1-2)Gal(b1-4)Glc6S
# Summary of the method: as §1
# Fuc(a1-2)Gal(b1-4)GlcNAc = target: Fuc(a1-2)Gal(b1-4)GlcNAc
# Summary of the method: as §1
# [20] = target: Fuc(a1-2)Gal(b1-4)GlcNAc(b1-2)Man
# Summary of the method: as §1
# [21] = target: Fuc(a1-2)Gal(b1-4)GlcNAc(b1-2)Man(a1-3)[Fuc(a1-2)Gal(b1-4)GlcNAc(b1-2)Man(a1-6)]Man(b1-4)GlcNAc(b1-4)GlcNAc
# Summary of the method: as §1
# [22] = target: Fuc(a1-2)Gal(b1-4)GlcNAc(b1-2)Man(a1-3)[Fuc(a1-2)Gal(b1-4)GlcNAc(b1-2)Man(a1-6)]Man(b1-4)GlcNAc(b1-4)[Fuc(a1-6)]GlcNAc
# Summary of the method: as §1
# [23] = target: Fuc(a1-2)Gal(b1-4)GlcNAc(b1-2)[Fuc(a1-2)Gal(b1-4)GlcNAc(b1-4)]Man(a1-3)[Fuc(a1-2)Gal(b1-4)GlcNAc(b1-2)Man(a1-6)]Man(b1-4)GlcNAc(b1-4)GlcNAc
# Summary of the method: as §1
# [24] = target: Fuc(a1-2)Gal(b1-4)GlcNAc(b1-3)Gal(b1-4)GlcNAc
# Summary of the method: as §1
# [25] = target: Fuc(a1-2)Gal(b1-4)GlcNAc(b1-3)Gal(b1-4)GlcNAc(b1-2)Man(a1-3)[Fuc(a1-2)Gal(b1-4)GlcNAc(b1-3)Gal(b1-4)GlcNAc(b1-2)Man(a1-6)]Man(b1-4)GlcNAc(b1-4)GlcNAc
# Summary of the method: as §1
# [26] = target: Fuc(a1-2)Gal(b1-4)GlcNAc(b1-3)Gal(b1-4)GlcNAc(b1-3)Gal(b1-4)GlcNAc
# Summary of the method: as §1
# [27] = target: Fuc(a1-2)Gal(b1-4)GlcNAc(b1-3)GalNAc
# Summary of the method: as §1
# [28] = target: Fuc(a1-2)Gal(b1-4)GlcNAc(b1-3)[Fuc(a1-2)Gal(b1-4)GlcNAc(b1-6)]GalNAc
# Summary of the method: as §1
# [29] = target: Fuc(a1-2)Gal(b1-4)GlcNAc(b1-3)[Fuc(a1-3)[Gal(b1-4)]GlcNAc(b1-6)]Gal(b1-4)Glc
# Summary of the method: as §1
# [30] = target: Fuc(a1-2)Gal(b1-4)GlcNAc(b1-6)GalNAc
# Summary of the method: as §1
# [31] = target: Fuc(a1-2)Gal(b1-4)GlcNAc6S
# Summary of the method: as §1
# [32] = target: Fuc(a1-2)Gal(b1-4)[Fuc(a1-3)]GlcNAc
# Summary of the method: as §1
# [33] = target: Fuc(a1-2)Gal(b1-4)[Fuc(a1-3)]GlcNAc(b1-2)Man(a1-3)[Fuc(a1-2)Gal(b1-4)[Fuc(a1-3)]GlcNAc(b1-2)Man(a1-6)]Man(b1-4)GlcNAc(b1-4)[Fuc(a1-6)]GlcNAc
# Summary of the method: as §1
# [34] = target: Fuc(a1-2)Gal(b1-4)[Fuc(a1-3)]GlcNAc(b1-2)[Fuc(a1-2)Gal(b1-4)[Fuc(a1-3)]GlcNAc(b1-4)]Man(a1-3)[Fuc(a1-2)Gal(b1-4)[Fuc(a1-3)]GlcNAc(b1-2)Man(a1-6)]Man(b1-4)GlcNAc(b1-4)GlcNAc
# Summary of the method: as §1
# [35] = target: Fuc(a1-2)Gal(b1-4)[Fuc(a1-3)]GlcNAc(b1-3)Gal(b1-4)[Fuc(a1-3)]GlcNAc
# Summary of the method: as §1
# [36] = target: Fuc(a1-2)Gal(b1-4)[Fuc(a1-3)]GlcNAc(b1-3)Gal(b1-4)[Fuc(a1-3)]GlcNAc(b1-3)Gal(b1-4)[Fuc(a1-3)]GlcNAc
# Summary of the method: as §1
# [37] = target: Fuc(a1-2)Gal(b1-4)[Fuc(a1-3)]GlcNAc(b1-3)GalNAc
# Summary of the method: as §1
# [38] = target: Fuc(a1-2)Gal(b1-4)[Fuc(a1-3)]GlcNAc(b1-3)[Neu5Ac(a2-6)Gal(b1-4)GlcNAc(b1-6)]Gal(b1-4)Glc
# Summary of the method: as §1
# [39] = target: Fuc(a1-2)Gal3S(b1-4)GlcNAc
# Summary of the method: as §1
binder,measurement,setting,value
"CBP21 (Serratia marcescens), O83009 (protein) MNKTSRTLLSLGLLSAAMFGVSQQANAHGYVESPASRAYQCKLQLNTQCGSVQYEPQSVEGLKGFPQAGPADGHIASADKSTFFELDQQTPTRWNKLNLKTGPNSFTWKLTARHSTTSWRYFITKPNWDASQPLTRASFDLTPFCQFNDGGAIPAAQVTHQCNIPADRSGSHVILAVWDIADTANAFYQAIDVNLSK",glycan array binding signal (z-score),Fuc(a1-2)Gal,-0.237
same,glycan array binding signal (z-score),Fuc(a1-2)Gal(b1-3)GalNAc,-1.01
same,glycan array binding signal (z-score),[1],-1.36
same,glycan array binding signal (z-score),[2],0.386
same,glycan array binding signal (z-score),[3],-0.226
same,glycan array binding signal (z-score),[4],-0.103
same,glycan array binding signal (z-score),[5],-0.018
same,glycan array binding signal (z-score),Fuc(a1-2)Gal(b1-3)GlcNAc,0.853
same,glycan array binding signal (z-score),[6],4.3
same,glycan array binding signal (z-score),[7],-0.556
same,glycan array binding signal (z-score),[8],-0.192
same,glycan array binding signal (z-score),[9],2.22
same,glycan array binding signal (z-score),[10],1.43
same,glycan array binding signal (z-score),[11],-1.36
same,glycan array binding signal (z-score),[12],-0.594
same,glycan array binding signal (z-score),[13],0.841
same,glycan array binding signal (z-score),[14],-1.12
same,glycan array binding signal (z-score),[15],0.146
same,glycan array binding signal (z-score),[16],0.424
same,glycan array binding signal (z-score),[17],0.881
same,glycan array binding signal (z-score),[18],0.781
same,glycan array binding signal (z-score),[19],-0.715
same,glycan array binding signal (z-score),Fuc(a1-2)Gal(b1-4)Glc,-0.946
same,glycan array binding signal (z-score),Fuc(a1-2)Gal(b1-4)Glc6S,-0.903
same,glycan array binding signal (z-score),Fuc(a1-2)Gal(b1-4)GlcNAc,-0.589
same,glycan array binding signal (z-score),[20],0.189
same,glycan array binding signal (z-score),[21],-0.809
same,glycan array binding signal (z-score),[22],-0.607
same,glycan array binding signal (z-score),[23],-0.493
same,glycan array binding signal (z-score),[24],-1.37
same,glycan array binding signal (z-score),[25],1.84
same,glycan array binding signal (z-score),[26],-0.768
same,glycan array binding signal (z-score),[27],-0.128
same,glycan array binding signal (z-score),[28],-0.514
same,glycan array binding signal (z-score),[29],-0.523
same,glycan array binding signal (z-score),[30],2.2
same,glycan array binding signal (z-score),[31],-1.02
same,glycan array binding signal (z-score),[32],0.152
same,glycan array binding signal (z-score),[33],0.936
same,glycan array binding signal (z-score),[34],3.02
same,glycan array binding signal (z-score),[35],-0.08
same,glycan array binding signal (z-score),[36],2.95
same,glycan array binding signal (z-score),[37],2.2
same,glycan array binding signal (z-score),[38],0.974
same,glycan array binding signal (z-score),[39],0.542

# Shown with bars between the fields: entries from further up
binder | measurement | setting | value
CBP21 (Serratia marcescens), O83009 (protein) MNKTSRTLLSLGLLSAAMFGVSQQANAHGYVESPASRAYQCKLQLNTQCGSVQYEPQSVEGLKGFPQAGPADGHIASADKSTFFELDQQTPTRWNKLNLKTGPNSFTWKLTARHSTTSWRYFITKPNWDASQPLTRASFDLTPFCQFNDGGAIPAAQVTHQCNIPADRSGSHVILAVWDIADTANAFYQAIDVNLSK | glycan array binding signal (z-score) | [18] | 0.781
same | glycan array binding signal (z-score) | [19] | -0.715
same | glycan array binding signal (z-score) | Fuc(a1-2)Gal(b1-4)Glc | -0.946
same | glycan array binding signal (z-score) | Fuc(a1-2)Gal(b1-4)Glc6S | -0.903
same | glycan array binding signal (z-score) | Fuc(a1-2)Gal(b1-4)GlcNAc | -0.589
same | glycan array binding signal (z-score) | [20] | 0.189
same | glycan array binding signal (z-score) | [21] | -0.809
same | glycan array binding signal (z-score) | [22] | -0.607
same | glycan array binding signal (z-score) | [23] | -0.493
same | glycan array binding signal (z-score) | [24] | -1.37
same | glycan array binding signal (z-score) | [25] | 1.84
same | glycan array binding signal (z-score) | [26] | -0.768
